These results are taken from patent US20110076262A1.

The assay addresses Cynomolgus FGF19 (cynomolgus monkey). The experiment in a line: Western blot probed with Ch1A6: cynomolgus liver lysate (immunoprecipitated, SDS-PAGE) and recombinant cynomolgus FGF19 in increasing amount (100 ng or 200 ng according to the text).

These are yes or no findings as the source states them, for the method shown. Binding can be weak; no strength is given.

B1: chimeric anti-FGF19 antibody 1A6 (antibody, V domains shown)
VH: QVQLKQSGPGLVQPSQSLSITCTVSGFSLTTYGVHWVRQSPGKGLEWLGVIWPGGGTDYNAAFISRLSITKDNSKSQVFFKMNSLLANDTAIYFCVRKEYANLYAMDYWGQGTLLTVSA
VL: DIKMTQSPSSMYASLGERVTIPCKASQDINSFLSWFQQKPGKSPKTLIYRANRLVDGVPSRFSGSGSGQDYSLTISSLEYEDMGIYYCLQYDEFPLTFGAGTKVEIKR
As to B1, the binding entry was “binds”.
